{
  "source": "patent US5451522A",
  "about": "“Genes encoding and method of expressing an enzyme: phthalyl amidase” (priority 1994, dated 1995)",
  "system": "Xanthobacter agilis",
  "test": "Induction of phthalyl amidase in Xanthobacter agilis cultures",
  "format": "cell-based",
  "details": "Table 1 summary",
  "method": "Three compounds at different concentrations were added to aerated cultures of the organism growing at 30° C. in Bac MI medium. The compounds tested were phthalate (PAA), phthalyl glycine (PAG), and PMBL. Cells of Xanthobacter agilis were grown with aeration for 24 hours. This vegetative culture was used to inoculate Bac MI medium (50 ml) containing different concentrations of the compounds to be tested. After 48 hours growth under standard conditions, cells were harvested by centrifugation and wet weight of the cells was determined. Crude cell extracts were prepared by lysozyme treatment of the cells as in Example 1. Suspensions were briefly sonicated to break up the viscous suspension. […]\nEnzyme activity in cell-free lysates was determined by monitoring conversion of the chromogenic substrate 4-(2'-carboxy-N-benzoyl)amino-2-carboxy-nitrobenzene (II) to 2-nitro-5-amino benzoic acid and phthalic acid, a reaction catalyzed by phthalyl amidase as shown below: [drawing 4]\nThe assay reaction mixture (1 ml) consisted of 0.3 μmol of the chromogenic substrate (II) and 0.001-0.5 μg of enzyme preparation in 50 mM potassium phosphate buffer, pH 8.0 (buffer A). The enzymatic reaction was conducted at 30° C. for 10 minutes and the appearance of product was monitored at 380 nm (or 430 nm). The amount of substrate hydrolyzed was calculated from a standard curve of the amine product.",
  "note": "At least one structure is not confirmed: it was looked up by name or label, or the drawing left a doubt.",
  "data": [
    {"smiles": "O=C(O)c1ccccc1C(=O)O", "note": "[PAA, phthalate]", "values": [
      {"measurement": "effect on wet weight cell mass (in words)", "value": "increased"}
    ]}
  ]
}
